Assay results from the supplement of paper PMC10849652.
The list shows a part of the results.

Chains of the proteins cited; added tags and fusions are not shown. Lines headed by an entry give the natural chain unless they say otherwise; changes in a name come on top.
UniProt P49914: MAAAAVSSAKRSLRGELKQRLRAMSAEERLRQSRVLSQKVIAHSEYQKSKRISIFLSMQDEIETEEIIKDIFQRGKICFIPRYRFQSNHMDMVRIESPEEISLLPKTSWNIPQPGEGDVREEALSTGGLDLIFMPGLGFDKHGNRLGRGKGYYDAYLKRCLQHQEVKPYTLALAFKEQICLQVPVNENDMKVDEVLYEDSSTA
UniProt Q9P0P8: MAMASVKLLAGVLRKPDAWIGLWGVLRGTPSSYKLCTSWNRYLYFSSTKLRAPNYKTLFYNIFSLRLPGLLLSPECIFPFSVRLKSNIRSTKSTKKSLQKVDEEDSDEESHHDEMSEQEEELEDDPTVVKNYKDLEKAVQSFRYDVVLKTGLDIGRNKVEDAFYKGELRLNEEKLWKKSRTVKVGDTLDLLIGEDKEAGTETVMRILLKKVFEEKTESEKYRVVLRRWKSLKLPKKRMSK
UniProt P58546, whole entry, looked up: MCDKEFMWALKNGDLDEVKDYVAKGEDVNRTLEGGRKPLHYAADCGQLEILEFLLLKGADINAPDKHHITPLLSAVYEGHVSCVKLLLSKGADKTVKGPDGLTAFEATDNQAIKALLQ
UniProt Q765P7: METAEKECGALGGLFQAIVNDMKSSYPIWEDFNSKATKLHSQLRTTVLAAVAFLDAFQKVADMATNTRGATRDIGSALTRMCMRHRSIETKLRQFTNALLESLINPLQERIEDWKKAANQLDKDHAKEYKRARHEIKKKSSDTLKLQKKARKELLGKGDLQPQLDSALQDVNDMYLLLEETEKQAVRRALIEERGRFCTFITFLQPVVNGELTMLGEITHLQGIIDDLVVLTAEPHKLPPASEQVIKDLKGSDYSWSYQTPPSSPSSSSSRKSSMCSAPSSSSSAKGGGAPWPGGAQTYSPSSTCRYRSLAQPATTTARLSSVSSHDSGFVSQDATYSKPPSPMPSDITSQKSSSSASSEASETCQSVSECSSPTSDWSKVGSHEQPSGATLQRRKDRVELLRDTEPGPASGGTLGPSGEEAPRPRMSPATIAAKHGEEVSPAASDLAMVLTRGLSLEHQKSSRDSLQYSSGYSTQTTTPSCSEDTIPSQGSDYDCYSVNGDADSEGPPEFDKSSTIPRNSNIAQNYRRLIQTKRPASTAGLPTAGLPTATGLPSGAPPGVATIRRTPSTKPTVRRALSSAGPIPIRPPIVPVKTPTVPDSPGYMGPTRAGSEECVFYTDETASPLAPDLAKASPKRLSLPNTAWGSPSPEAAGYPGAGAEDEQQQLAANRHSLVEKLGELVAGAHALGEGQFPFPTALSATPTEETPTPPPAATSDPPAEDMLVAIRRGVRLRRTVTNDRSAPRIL
UniProt P03886, whole entry, looked up: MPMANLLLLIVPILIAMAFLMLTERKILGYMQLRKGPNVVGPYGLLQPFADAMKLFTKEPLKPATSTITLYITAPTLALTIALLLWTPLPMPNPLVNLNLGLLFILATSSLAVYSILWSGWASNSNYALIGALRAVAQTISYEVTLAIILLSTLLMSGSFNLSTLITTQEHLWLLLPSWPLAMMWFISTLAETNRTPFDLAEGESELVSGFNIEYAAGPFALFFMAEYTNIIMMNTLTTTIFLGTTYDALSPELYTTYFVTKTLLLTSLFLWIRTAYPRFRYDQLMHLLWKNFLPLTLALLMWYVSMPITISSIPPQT
UniProt Q15800: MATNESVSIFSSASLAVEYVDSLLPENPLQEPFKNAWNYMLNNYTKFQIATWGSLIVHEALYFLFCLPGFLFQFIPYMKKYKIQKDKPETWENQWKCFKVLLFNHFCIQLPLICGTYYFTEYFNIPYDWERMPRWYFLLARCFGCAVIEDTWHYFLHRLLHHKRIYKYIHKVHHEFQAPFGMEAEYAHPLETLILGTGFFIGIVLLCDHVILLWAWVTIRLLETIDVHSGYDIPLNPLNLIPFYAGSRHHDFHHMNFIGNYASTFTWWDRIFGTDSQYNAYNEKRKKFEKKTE
UniProt Q8NCE2: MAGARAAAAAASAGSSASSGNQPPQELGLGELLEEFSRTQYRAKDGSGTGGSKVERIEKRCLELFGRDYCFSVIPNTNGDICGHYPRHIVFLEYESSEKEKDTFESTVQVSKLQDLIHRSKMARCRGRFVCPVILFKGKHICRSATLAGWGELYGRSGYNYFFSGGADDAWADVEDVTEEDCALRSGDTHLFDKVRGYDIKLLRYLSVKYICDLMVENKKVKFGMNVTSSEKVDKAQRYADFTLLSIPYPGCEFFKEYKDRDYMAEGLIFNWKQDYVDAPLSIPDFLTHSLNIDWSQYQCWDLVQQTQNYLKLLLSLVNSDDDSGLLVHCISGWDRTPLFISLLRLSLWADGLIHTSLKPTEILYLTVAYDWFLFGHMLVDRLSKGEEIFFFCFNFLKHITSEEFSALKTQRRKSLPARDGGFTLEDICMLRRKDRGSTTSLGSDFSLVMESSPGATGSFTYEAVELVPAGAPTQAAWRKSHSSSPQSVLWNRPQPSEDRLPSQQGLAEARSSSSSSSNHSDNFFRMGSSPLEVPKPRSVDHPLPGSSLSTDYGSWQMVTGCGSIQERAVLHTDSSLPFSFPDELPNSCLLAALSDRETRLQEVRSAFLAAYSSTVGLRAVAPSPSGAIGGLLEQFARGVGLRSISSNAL
UniProt P03891, whole entry, looked up: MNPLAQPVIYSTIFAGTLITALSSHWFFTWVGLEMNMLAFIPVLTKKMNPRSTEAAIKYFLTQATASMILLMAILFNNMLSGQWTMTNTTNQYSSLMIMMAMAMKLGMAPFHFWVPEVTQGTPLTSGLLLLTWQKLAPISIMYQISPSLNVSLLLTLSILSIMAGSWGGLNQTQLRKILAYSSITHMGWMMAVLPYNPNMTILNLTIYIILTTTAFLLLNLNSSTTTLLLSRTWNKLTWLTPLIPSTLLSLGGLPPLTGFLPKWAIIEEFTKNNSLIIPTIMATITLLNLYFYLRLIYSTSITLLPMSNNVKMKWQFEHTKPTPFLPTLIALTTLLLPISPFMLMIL
UniProt Q96E29: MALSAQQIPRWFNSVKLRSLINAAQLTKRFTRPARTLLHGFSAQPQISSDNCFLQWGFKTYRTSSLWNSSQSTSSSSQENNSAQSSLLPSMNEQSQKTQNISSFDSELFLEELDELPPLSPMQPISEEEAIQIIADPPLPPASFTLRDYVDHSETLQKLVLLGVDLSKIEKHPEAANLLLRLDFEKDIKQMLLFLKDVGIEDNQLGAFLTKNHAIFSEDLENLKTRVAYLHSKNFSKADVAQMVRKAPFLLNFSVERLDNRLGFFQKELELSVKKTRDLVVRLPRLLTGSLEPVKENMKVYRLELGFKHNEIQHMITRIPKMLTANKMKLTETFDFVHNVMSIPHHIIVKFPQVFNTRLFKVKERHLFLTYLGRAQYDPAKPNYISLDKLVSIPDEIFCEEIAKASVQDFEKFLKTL
UniProt Q9Y2Z2: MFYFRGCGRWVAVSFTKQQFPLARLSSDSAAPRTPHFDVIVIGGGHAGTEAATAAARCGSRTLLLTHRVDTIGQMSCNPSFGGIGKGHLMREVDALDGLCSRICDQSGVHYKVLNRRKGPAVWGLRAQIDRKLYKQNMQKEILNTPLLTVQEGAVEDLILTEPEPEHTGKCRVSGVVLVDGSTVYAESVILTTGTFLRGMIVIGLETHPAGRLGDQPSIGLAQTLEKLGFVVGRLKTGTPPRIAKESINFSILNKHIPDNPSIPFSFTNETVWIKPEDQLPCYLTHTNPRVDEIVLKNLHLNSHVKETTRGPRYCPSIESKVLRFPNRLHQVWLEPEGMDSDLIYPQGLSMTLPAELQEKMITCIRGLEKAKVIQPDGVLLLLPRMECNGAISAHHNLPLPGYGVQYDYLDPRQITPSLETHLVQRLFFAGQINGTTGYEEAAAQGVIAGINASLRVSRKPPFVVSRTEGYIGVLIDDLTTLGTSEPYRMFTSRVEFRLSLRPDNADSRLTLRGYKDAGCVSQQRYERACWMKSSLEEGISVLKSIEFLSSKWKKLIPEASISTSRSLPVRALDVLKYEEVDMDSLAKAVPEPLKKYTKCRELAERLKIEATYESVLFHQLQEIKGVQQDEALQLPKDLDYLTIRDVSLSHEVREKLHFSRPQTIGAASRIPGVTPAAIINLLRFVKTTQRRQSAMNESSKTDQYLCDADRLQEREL
UniProt Q9ULH7: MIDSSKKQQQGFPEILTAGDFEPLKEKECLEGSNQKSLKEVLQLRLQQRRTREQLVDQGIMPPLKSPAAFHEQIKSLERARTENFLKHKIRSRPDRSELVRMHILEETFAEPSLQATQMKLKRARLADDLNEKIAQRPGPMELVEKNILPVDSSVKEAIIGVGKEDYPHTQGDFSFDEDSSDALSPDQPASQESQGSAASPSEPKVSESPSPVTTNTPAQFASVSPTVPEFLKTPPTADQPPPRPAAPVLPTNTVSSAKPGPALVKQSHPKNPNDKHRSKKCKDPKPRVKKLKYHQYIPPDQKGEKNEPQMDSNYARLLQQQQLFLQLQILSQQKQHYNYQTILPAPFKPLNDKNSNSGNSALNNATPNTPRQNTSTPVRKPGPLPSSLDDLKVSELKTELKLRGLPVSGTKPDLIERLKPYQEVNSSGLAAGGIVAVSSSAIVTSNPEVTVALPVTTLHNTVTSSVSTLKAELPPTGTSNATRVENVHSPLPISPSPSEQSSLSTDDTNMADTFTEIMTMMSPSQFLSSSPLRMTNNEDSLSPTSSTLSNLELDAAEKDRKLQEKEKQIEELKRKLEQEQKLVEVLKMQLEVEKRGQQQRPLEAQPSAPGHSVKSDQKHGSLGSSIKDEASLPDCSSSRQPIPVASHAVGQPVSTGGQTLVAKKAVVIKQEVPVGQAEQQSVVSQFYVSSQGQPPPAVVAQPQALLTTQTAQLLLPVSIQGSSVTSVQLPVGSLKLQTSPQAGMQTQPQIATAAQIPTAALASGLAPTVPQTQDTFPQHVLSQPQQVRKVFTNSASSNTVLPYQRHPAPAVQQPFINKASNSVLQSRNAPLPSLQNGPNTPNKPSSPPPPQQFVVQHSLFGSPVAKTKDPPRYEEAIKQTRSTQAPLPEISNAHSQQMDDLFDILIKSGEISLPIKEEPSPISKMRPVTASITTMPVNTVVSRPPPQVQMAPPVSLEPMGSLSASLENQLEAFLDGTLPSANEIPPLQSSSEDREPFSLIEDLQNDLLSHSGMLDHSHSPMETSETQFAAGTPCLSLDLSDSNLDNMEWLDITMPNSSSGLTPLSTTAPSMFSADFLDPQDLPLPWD
UniProt P13995: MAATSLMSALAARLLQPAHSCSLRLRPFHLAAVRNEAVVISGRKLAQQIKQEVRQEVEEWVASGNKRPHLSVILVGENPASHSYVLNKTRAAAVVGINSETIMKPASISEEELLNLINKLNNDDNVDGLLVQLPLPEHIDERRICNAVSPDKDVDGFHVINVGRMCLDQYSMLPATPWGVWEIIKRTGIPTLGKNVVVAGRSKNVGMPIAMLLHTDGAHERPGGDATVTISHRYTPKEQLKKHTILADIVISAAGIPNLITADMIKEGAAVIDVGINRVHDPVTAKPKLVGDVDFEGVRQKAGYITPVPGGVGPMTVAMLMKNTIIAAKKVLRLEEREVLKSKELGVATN
UniProt P43246, whole entry, looked up: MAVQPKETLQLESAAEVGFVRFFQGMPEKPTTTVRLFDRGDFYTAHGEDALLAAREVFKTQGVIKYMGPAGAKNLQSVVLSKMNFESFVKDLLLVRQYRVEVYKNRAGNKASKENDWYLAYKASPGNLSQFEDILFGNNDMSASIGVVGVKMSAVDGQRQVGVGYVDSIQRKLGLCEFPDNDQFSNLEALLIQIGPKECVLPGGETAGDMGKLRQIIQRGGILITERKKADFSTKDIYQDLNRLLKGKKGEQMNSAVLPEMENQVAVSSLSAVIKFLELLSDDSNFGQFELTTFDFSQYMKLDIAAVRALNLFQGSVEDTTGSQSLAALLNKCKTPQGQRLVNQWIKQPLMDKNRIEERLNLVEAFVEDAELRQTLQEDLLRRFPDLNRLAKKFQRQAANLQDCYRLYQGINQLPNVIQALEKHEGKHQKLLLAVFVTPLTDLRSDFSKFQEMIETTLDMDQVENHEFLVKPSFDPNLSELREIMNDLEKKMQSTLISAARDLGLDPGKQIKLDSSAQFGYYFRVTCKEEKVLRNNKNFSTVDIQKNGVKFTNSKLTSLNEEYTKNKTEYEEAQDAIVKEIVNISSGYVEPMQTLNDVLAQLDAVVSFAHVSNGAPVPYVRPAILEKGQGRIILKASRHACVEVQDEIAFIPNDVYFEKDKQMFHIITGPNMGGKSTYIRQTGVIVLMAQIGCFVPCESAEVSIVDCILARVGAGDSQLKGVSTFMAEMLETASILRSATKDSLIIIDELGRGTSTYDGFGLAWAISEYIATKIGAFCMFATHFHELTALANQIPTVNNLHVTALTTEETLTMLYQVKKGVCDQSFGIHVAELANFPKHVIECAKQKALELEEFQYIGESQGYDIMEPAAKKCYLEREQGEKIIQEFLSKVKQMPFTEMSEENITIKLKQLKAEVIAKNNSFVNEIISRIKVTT

Experiments:
Assay in all cases: log2 fold change, soluble protein after heating vs DMSO (PISA); higher = thermal stabilisation; K562 lysate, 10 uM; active = over 0.2 and 3.5 SD of the protein, either way, in both replicates (recomputed)
[1] = compound: C1=CC=C(C=C1)[C@H](COC2=CC3=C(C=C2)NC(=O)N3)NC(=O)C4=CC=CN(C4=O)CC5=CC(=C(C=C5)F)F
Summary of the method: (§1)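 K562 pellets were dounce-homogenised in PBS pH 7.4 containing 1 mM MgCl2, and the crude extract, at 1 mg/mL protein, was exposed to 10 μM compound for 30 min. Aliquots were heated for 3 min across 48°C-58°C, pooled, brought to 0.5% NP-40 at 4°C and spun at 21,000xg for 90 min, with the supernatant taken as soluble protein. TMTpro 16plex LC-MS/MS with equalised channel sums quantified that protein. Values are log-two fold changes in thermal stability relative to solvent controls, taken from duplicates.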

[2] = compound: CC1=C(SC2=C1C(=N[C@H](C3=NN=C(N32)C)CC(=O)N)C4=CC=C(C=C4)Cl)C
Summary of the method: as §1

[3] = compound: CC1=C2C(=CC=C1)N=C(N(C2=O)C3=CC=CC=C3C)CN4C=NC5=C(N=CN=C54)N
Summary of the method: as §1

[4] = compound: Cc1sc2c(c1C)C(c1ccc(Cl)cc1)=N[C@@H](CC(=O)OC(C)(C)C)c1nnc(C)n1-2
Summary of the method: as §1

[5] = compound: c1ccc([C@@H]2C[C@H]2NC2CCNCC2)cc1
Summary of the method: as §1

Measured: log2 fold change

MTOR (UniProt P42345)
inactive: [1] -0.022 | [2] 0.004 | [3] 0.013 | [4] 0.014 | [5] 0.029

MTIF2 (UniProt P46199)
inactive: [1] 0.028 | [2] 0.04 | [3] 0.035 | [4] -0.025 | [5] 0.03

MTHFS (UniProt P49914)
inactive: [1] 0.064 | [2] 0.008 | [3] 0.011 | [4] -0.04 | [5] -0.01

MTR (UniProt Q99707)
inactive: [1] -0.024 | [2] 0.014 | [3] 0.006 | [4] 0.003 | [5] -0.014

MRPL9 (UniProt Q9BYD2)
inactive: [1] 0.011 | [2] 0.036 | [3] 0.035 | [4] -0.097 | [5] 0.059

MRPL37 (UniProt Q9BZE1)
inactive: [1] 0.004 | [2] -0.014 | [3] 0.035 | [4] 0.009 | [5] -0.007

MRPS28 (UniProt Q9Y2Q9)
inactive: [1] 0.019 | [2] -0.002 | [3] 0.001 | [4] 0.025 | [5] 0.031

MRPS7 (UniProt Q9Y2R9)
inactive: [1] -0.106 | [2] 0.064 | [3] 0.037 | [4] 0.077 | [5] 0.032

MRPL55 isoform 2 (UniProt Q7Z7F7)
inactive: [1] -0.044 | [2] 0.089 | [3] 0.038 | [4] 0.006 | [5] 0.062

MTRES1 (UniProt Q9P0P8)
inactive: [1] 0.066 | [2] 0.083 | [3] 0.034 | [4] 0.058

MTHFD1, A0A384N5Y3
inactive: [1] -0.003 | [2] -0.002 | [3] 0.015 | [4] 0.018 | [5] 0.071

MTMR1 (UniProt Q13613)
inactive: [1] 0.012 | [2] -0.009 | [3] 0.022 | [4] 0.077 | [5] 0.03

MTMR12 (UniProt Q9C0I1)
inactive: [1] 0.02 | [2] 0.03 | [3] 0.004 | [4] -0.029 | [5] -0.017

MRPL23 (UniProt Q16540)
inactive: [1] 0.098 | [2] 0.004 | [3] 0.005 | [4] 0.05 | [5] 0.019

MRPS18C (UniProt Q9Y3D5)
inactive: [1] -0.072 | [2] 0.048 | [3] 0.045 | [4] -0.109 | [5] -0.005

MRPL3 (UniProt P09001)
inactive: [1] 0 | [2] 0.023 | [3] 0.036 | [4] 0.012 | [5] -0.01

MRPS24 (UniProt Q96EL2)
inactive: [1] -0.009 | [2] 0.088 | [3] -0.123 | [4] -0.028 | [5] 0.075

MSL1 (UniProt Q68DK7)
inactive: [1] -0.05 | [2] 0.04 | [3] 0.012 | [4] -0.022 | [5] -0.046

MTMR6 (UniProt Q9Y217)
inactive: [1] 0.015 | [2] 0.01 | [3] 0.006 | [4] -0.065 | [5] 0.062

MTPN (UniProt P58546)
inactive: [1] 0.045 | [2] -0.046 | [3] -0.001 | [4] -0.005 | [5] 0.103

MTSS2 (UniProt Q765P7)
inactive: [1] 0.023 | [2] 0.01 | [3] -0.022 | [4] -0.035 | [5] 0.002

MRPL50 (UniProt Q8N5N7)
inactive: [1] 0.145 | [2] -0.073 | [3] -0.013 | [4] -0.04 | [5] -0.013

MT-ND1 (UniProt P03886)
inactive: [1] -0.057 | [2] -0.098 | [3] -0.055 | [4] -0.077 | [5] -0.039

MRPS25 (UniProt P82663)
inactive: [1] 0.081 | [2] 0.012 | [3] 0.029 | [4] 0.036 | [5] 0.105

MRTO4 (UniProt Q9UKD2)
inactive: [1] 0.003 | [2] 0.032 | [3] 0.024 | [4] 0.056 | [5] 0.005

MRPL45 (UniProt Q9BRJ2)
inactive: [1] -0.048 | [2] 0.033 | [3] -0.03 | [4] 0.05 | [5] 0.019

MRPS18B (UniProt Q9Y676)
inactive: [1] 0.022 | [2] 0.068 | [3] -0.024 | [4] 0.038 | [5] 0.028

MRPS9 (UniProt P82933)
inactive: [1] 0.025 | [2] 0.053 | [3] 0.055 | [4] 0.008 | [5] 0.05

MSMO1 (UniProt Q15800)
inactive: [1] 0.018 | [2] 0.033 | [3] 0.046 | [4] -0.078 | [5] -0.018

MRPS21 (UniProt P82921)
inactive: [1] -0.128 | [2] 0.12 | [3] 0.163 | [4] -0.06 | [5] -0.006

MT-ATP6 (UniProt P00846)
inactive: [1] 0.005 | [2] -0.026 | [3] -0.072 | [4] -0.263 | [5] -0.037

MTA3 (UniProt Q9BTC8)
inactive: [1] -0.006 | [2] -0.047 | [3] 0.002 | [4] 0.014 | [5] -0.001

MTMR14 (UniProt Q8NCE2)
inactive: [1] -0.031 | [2] 0.018 | [3] 0.03 | [4] -0.01 | [5] 0.028

MT-ND2 (UniProt P03891)
inactive: [1] -0.168 | [2] -0.187 | [3] -0.029 | [4] -0.027 | [5] 0.118

MRPL47 (UniProt Q9HD33)
inactive: [1] -0.014 | [2] 0.065 | [3] -0.024 | [4] 0.02 | [5] 0.04

MTERF3 (UniProt Q96E29)
inactive: [1] -0.024 | [2] 0.001 | [3] 0.08 | [4] -0.04 | [5] 0.111

MTO1 isoform 4 (UniProt Q9Y2Z2)
inactive: [1] -0.24 | [2] 0.04 | [3] 0.031 | [4] 0.063 | [5] 0.019

MTFR1 (UniProt Q15390)
inactive: [1] 0.03 | [2] -0.003 | [3] -0.137 | [4] -0.066 | [5] -0.044

Reprinted at random: 3 records from the list.
MTMR14 (UniProt Q8NCE2)
inactive: [1] -0.031 | [2] 0.018 | [3] 0.03 | [4] -0.01 | [5] 0.028

MT-ND2 (UniProt P03891)
inactive: [1] -0.168 | [2] -0.187 | [3] -0.029 | [4] -0.027 | [5] 0.118

MTERF3 (UniProt Q96E29)
inactive: [1] -0.024 | [2] 0.001 | [3] 0.08 | [4] -0.04 | [5] 0.111

Continuation:

MRPL57 (UniProt Q9BQC6)
inactive: [1] -0.049 | [2] 0.038 | [3] -0.111 | [4] 0.027 | [5] -0.061

MT-CO2 (UniProt P00403)
inactive: [1] -0.111 | [2] 0.013 | [3] -0.001 | [4] -0.031 | [5] 0.14

MRPS35 (UniProt P82673)
inactive: [1] 0.034 | [2] -0.023 | [3] 0.009 | [4] 0.033 | [5] 0.039

MRTFB isoform 5 (UniProt Q9ULH7)
inactive: [1] 0.016 | [2] -0.015 | [3] 0.002 | [4] 0.033 | [5] -0.019

MRPL52 (UniProt Q86TS9)
inactive: [1] -0.035 | [2] 0.062 | [3] -0.023 | [4] -0.042 | [5] -0.036

MTFR1L (UniProt Q9H019)
inactive: [1] -0.007 | [2] 0.037 | [3] 0.091 | [4] 0.028 | [5] -0.003

MTHFD1L (UniProt B7ZM99)
inactive: [1] -0.039 | [2] 0.025 | [3] 0.06 | [4] 0.025 | [5] 0.049

MTMR3 (UniProt Q13615)
inactive: [1] 0.012 | [2] -0.003 | [3] 0.015 | [4] -0.033 | [5] -0.06

MRPL38 (UniProt Q96DV4)
inactive: [1] 0.006 | [2] 0.066 | [3] -0.002 | [4] -0.037 | [5] 0.068

MRPL53 (UniProt Q96EL3)
inactive: [1] -0.056 | [2] -0.102 | [3] 0.079 | [4] -0.026 | [5] -0.093

MTIF3 (UniProt Q9H2K0)
inactive: [1] -0.03 | [2] -0.048 | [3] 0.099 | [4] 0.053 | [5] 0.035

MTHFD2 (UniProt P13995)
inactive: [1] 0.006 | [2] -0.022 | [3] 0.004 | [4] 0.033 | [5] -0.028

MSH2 (UniProt P43246)
inactive: [1] 0.018 | [2] -0.006 | [3] 0.028 | [4] 0.001 | [5] 0.065

MUC1, A0A087WWM1
inactive: [1] -0.045 | [2] -0.082 | [3] -0.004 | [4] -0.065 | [5] 0.015

MRPS22 (UniProt P82650)
inactive: [1] -0.011 | [2] 0.067 | [3] 0.078 | [4] 0.057 | [5] 0.035
